# Reference: PMC5725448
# Protein sequences, listed by entry. Tags and fused reporters are not part of them. Residues count along the entry.
# UniProt Q14974: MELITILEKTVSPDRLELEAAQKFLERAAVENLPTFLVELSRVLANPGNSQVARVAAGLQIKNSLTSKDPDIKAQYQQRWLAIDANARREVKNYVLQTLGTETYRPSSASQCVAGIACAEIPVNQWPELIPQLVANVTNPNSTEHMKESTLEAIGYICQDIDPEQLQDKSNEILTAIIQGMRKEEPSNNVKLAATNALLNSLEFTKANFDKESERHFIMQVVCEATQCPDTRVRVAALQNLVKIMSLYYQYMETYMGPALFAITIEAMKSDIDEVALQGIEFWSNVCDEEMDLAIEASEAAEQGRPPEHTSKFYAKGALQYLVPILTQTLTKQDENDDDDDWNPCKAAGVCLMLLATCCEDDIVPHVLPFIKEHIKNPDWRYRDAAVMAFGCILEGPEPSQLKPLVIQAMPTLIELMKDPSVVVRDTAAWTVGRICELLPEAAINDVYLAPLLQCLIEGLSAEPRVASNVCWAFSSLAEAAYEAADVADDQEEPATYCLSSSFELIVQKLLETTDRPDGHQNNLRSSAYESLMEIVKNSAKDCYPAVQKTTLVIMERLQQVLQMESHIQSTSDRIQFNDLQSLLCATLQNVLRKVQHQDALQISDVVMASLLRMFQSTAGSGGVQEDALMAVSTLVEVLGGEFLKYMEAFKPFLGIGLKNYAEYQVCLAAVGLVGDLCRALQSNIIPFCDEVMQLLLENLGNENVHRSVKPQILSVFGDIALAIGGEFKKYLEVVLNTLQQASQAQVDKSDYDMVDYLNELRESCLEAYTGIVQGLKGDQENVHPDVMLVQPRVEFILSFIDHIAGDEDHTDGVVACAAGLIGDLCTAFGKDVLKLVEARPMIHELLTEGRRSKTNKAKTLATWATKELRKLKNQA
# UniProt P40763: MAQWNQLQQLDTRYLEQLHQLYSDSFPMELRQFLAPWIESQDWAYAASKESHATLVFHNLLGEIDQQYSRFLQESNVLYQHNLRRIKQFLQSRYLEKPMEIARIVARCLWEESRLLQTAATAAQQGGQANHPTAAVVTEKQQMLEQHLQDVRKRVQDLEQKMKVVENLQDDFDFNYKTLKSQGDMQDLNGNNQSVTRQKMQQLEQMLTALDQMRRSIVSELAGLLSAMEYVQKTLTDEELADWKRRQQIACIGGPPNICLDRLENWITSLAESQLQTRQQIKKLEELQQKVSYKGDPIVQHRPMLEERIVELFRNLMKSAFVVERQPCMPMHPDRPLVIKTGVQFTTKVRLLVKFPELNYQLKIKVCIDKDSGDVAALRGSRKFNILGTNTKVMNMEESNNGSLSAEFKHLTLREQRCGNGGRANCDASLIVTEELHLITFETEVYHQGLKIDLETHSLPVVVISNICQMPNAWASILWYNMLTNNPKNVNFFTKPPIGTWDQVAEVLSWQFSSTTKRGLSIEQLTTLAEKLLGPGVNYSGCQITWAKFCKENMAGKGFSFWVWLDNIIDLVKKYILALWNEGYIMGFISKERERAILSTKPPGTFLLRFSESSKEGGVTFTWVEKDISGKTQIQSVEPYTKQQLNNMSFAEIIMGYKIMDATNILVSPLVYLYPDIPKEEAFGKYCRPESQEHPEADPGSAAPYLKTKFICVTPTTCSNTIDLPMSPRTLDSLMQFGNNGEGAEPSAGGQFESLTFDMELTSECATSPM
# UniProt P16234, residues 24-1089: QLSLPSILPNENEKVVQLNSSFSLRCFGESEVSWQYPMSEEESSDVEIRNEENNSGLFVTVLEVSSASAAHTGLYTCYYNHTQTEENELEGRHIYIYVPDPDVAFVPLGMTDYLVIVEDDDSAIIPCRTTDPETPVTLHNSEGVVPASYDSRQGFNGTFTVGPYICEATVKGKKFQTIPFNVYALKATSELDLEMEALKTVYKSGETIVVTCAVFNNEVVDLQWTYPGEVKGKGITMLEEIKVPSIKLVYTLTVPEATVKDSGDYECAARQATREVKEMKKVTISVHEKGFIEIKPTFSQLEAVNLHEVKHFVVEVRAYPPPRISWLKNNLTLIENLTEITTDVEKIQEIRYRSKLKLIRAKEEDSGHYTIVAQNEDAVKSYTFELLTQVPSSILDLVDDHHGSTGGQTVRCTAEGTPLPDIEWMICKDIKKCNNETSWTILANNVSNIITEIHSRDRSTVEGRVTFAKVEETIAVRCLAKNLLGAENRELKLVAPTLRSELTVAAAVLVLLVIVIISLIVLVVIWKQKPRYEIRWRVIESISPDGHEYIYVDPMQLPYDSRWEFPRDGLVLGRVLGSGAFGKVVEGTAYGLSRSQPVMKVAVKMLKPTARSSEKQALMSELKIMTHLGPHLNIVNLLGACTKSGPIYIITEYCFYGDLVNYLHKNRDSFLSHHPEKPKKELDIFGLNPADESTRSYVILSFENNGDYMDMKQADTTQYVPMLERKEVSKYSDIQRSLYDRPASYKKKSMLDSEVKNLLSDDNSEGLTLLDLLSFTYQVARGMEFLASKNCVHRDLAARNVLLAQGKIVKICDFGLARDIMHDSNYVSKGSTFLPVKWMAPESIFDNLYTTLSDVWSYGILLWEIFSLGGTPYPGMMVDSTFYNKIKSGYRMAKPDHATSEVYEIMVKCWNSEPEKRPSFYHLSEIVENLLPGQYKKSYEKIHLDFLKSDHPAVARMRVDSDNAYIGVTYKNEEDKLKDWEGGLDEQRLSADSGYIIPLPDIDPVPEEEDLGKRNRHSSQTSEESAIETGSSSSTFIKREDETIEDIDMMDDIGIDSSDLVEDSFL
# UniProt P18754: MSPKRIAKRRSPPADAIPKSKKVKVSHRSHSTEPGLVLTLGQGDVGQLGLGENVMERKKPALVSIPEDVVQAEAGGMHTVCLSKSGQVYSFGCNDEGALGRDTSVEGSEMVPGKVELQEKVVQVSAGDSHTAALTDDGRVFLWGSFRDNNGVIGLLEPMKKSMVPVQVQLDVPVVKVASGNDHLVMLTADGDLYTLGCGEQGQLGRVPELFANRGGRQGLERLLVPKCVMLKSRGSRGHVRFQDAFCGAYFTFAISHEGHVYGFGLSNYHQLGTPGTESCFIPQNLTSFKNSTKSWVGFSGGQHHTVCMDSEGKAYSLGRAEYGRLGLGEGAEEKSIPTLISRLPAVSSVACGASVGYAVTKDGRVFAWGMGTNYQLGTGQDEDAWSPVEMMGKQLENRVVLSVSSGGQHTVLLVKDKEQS
# These are yes or no findings as the source states them, for the method shown. Binding seen in cells or lysates may run through a third protein. Some entries that bind do so weakly or less than the wild type. For part of these data: Tags and fused reporters may be left off the sequences shown.
# T1: GST-RanBP6 fusion protein (human) (UniProt O60518)
# T1 sequence: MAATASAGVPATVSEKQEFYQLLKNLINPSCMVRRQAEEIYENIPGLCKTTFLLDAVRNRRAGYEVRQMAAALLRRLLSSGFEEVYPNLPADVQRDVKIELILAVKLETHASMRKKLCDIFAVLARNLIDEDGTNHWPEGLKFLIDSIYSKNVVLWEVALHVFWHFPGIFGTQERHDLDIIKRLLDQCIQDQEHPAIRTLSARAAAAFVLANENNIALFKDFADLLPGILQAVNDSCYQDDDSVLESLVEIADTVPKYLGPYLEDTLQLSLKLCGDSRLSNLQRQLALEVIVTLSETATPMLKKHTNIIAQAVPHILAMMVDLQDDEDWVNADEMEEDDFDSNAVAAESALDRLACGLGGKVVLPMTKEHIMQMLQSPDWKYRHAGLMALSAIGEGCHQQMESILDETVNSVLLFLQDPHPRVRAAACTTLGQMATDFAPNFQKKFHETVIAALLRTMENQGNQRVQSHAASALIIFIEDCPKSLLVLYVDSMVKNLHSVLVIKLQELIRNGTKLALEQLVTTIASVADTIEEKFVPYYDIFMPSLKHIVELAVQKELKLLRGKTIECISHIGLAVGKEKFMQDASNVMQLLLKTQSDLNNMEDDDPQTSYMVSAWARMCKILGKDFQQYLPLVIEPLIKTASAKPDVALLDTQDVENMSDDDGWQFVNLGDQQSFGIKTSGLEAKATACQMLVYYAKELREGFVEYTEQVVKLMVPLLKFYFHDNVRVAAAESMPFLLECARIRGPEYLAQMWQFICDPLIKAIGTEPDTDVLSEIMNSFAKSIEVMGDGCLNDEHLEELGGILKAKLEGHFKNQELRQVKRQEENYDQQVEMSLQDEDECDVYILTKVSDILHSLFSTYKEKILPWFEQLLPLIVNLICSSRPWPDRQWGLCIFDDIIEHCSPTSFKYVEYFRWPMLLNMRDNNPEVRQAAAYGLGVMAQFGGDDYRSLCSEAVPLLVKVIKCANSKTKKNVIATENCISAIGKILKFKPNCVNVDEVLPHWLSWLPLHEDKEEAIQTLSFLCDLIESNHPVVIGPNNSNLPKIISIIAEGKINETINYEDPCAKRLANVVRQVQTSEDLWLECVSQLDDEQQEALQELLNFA
# T2: V5 epitope tagged RanBP6-V5 (Ran-binding protein 6) (human) (UniProt O60518)
# T2 sequence: T1 sequence
# T3: RanBP6-V5 (doxycycline-inducible V5-tagged RanBP6) (human) (UniProt O60518)
# T3 sequence: T1 sequence
# B1: V5 epitope tagged RanBP6-V5 (Ran-binding protein 6) (protein, UniProt O60518 1-1105)
# chain: T1 sequence
# B2: Ran-binding protein 6 (RanBP6), endogenous (protein, UniProt O60518 1-1105)
# chain: T1 sequence
# B3: nuclear pore complex protein Nup93 (protein, UniProt Q8N1F7 1-819)
# chain: MDTEGFGELLQQAEQLAAETEGISELPHVERNLQEIQQAGERLRSRTLTRTSQETADVKASVLLGSRGLDISHISQRLESLSAATTFEPLEPVKDTDIQGFLKNEKDNALLSAIEESRKRTFGMAEEYHRESMLVEWEQVKQRILHTLLASGEDALDFTQESEPSYISDVGPPGRSSLDNIEMAYARQIYIYNEKIVNGHLQPNLVDLCASVAELDDKSISDMWTMVKQMTDVLLTPATDALKNRSSVEVRMEFVRQALAYLEQSYKNYTLVTVFGNLHQAQLGGVPGTYQLVRSFLNIKLPAPLPGLQDGEVEGHPVWALIYYCMRCGDLLAASQVVNRAQHQLGEFKTWFQEYMNSKDRRLSPATENKLRLHYRRALRNNTDPYKRAVYCIIGRCDVTDNQSEVADKTEDYLWLKLNQVCFDDDGTSSPQDRLTLSQFQKQLLEDYGESHFTVNQQPFLYFQVLFLTAQFEAAVAFLFRMERLRCHAVHVALVLFELKLLLKSSGQSAQLLSHEPGDPPCLRRLNFVRLLMLYTRKFESTDPREALQYFYFLRDEKDSQGENMFLRCVSELVIESREFDMILGKLENDGSRKPGVIDKFTSDTKPIINKVASVAENKGLFEEAAKLYDLAKNADKVLELMNKLLSPVVPQISAPQSNKERLKNMALSIAERYRAQGISANKFVDSTFYLLLDLITFFDEYHSGHIDRAFDIIERLKLVPLNQESVEERVAAFRNFSDEIRHNLSEVLLATMNILFTQFKRLKGTSPSSSSRPQRVIEDRDSQLRSQARTLITFAGMIPYRTSGDTNARLVQMEVLMN
# What was measured:
# [1] = target: T1, GST-RanBP6 fusion protein (human); assay: pull-down; about 25 μg GST-RanBP6 beads incubated with 500 μg HEK-293T whole-cell lysate for 2-4 h in the cold; cells serum starved 12 h and stimulated with EGF (100 ng/ml) or grown in full media; for EGFR also pretreatment with the AKT inhibitor MK-2206 (EGF reduced the association, MK-2206 rescued it); immunoblot; only the target purified
# [2] = target: T2, V5 epitope tagged RanBP6-V5 (Ran-binding protein 6) (human); assay: co-IP; immunoprecipitation with a V5 antibody from LN18 cells transduced with the Dox-inducible RanBP6-V5 vector (- and + Dox); blot with PDGFRA and V5 antibodies
# [3] = target: T1, GST-RanBP6 fusion protein (human); assay: pull-down; GST-RanBP6 beads incubated with lysates of Pten knockout (Pten Δ/Δ) MEFs; immunoblot for endogenous EGFR; only the target purified
# [4] = target: T1, GST-RanBP6 fusion protein (human); assay: pull-down; GST-RanBP6 beads incubated with lysates of Pten lox/lox MEFs; immunoblot for endogenous EGFR; only the target purified
# [5] = target: T3, RanBP6-V5 (doxycycline-inducible V5-tagged RanBP6) (human); assay: co-IP; IP with V5 antibody from lysates of A431 cells with Dox-inducible RanBP6-V5 (JS lysis buffer), immunoblot for EGFR; also cells serum starved and induced with EGF (100 ng/ml) for 5 min, which reduced the interaction
# [6] = target: T1, GST-RanBP6 fusion protein (human); assay: pull-down; GST-RanBP6 on beads incubated with the nuclear fraction of HEK-293T cells; fractionated lysates normalized to cell number (cytoplasm:nuclear = 50:1); immunoblot; only the target purified
# [7] = target: epidermal growth factor receptor (EGFR) (human (endogenous in HEK-293T and LN18)) (UniProt P00533); assay: co-IP; immunoprecipitation of endogenous EGFR from lysates of HEK-293T and LN18 cells with Dox-induced RanBP6-V5 (- and + Dox); blot with V5 and EGFR antibodies
# [8] = target: epidermal growth factor receptor (EGFR) (human (endogenous in A431, HEK-293T, LN18)) (UniProt P00533); assay: co-IP; immunoprecipitation of endogenous EGFR from HEK-293T and LN18 cells, RanBP6 detected
molecule,measurement,setting,value
importin subunit β-1 (from UniProt Q14974 1-876),binding,[1],binds
signal transducer and activator of transcription 3 (STAT3) (from UniProt P40763 1-770),binding,[1],binds
Platelet-derived Growth Factor Receptor alpha (PDGFRA) (from UniProt P16234 24-1089),binding,[2],no binding
"EGFR, endogenous in mouse embryonic fibroblasts (from UniProt Q01279 25-1210) (receptor)",binding,[3],no binding (condition: lysates of Pten knockout MEFs)
same,binding,[4],binds
epidermal growth factor receptor (EGFR) (from UniProt P00533 25-1210),binding,[5],binds
same,binding,[1],binds
RCC1 (from UniProt P18754 1-421),binding,[6],binds
phosphorylated STAT3 (tyrosine 705) (from UniProt P40763 1-770),binding,[1],binds
B1,binding,[7],binds
B2,binding,[8],binds
B3,binding,[1],binds
